Literature values in US6441039B1, “Gastro-intestinal adverse effect-free composition comprising an L-carnitine replacement” (priority 1998, dated 2002).
For at least one compound, name, drawing or mass did not settle the structure.

Details: cited from earlier work

C[N+](C)(C)C[C@H](O)CC(=O)O.O=C([O-])/C=C/C(=O)O [L-Carnitine acid Fumarate, L-carnitine acid fumarate]
hygroscopicity: non-hygroscopic
stability: highly stable
